In PMC12040169 (PLOS Biology, 2025):
The list shows a part of the results.

Tested on: T1, CTL2-GFP (C. trachomatis L2/434/Bu, GFP-expressing)
T1 construct: L2/434/Bu, GFP-expressing
Design: species or system HeLa; Intracellular C. trachomatis growth in HeLa cells, bulk GFP fluorescence relative to DMSO
Details: bulk GFP, single well; 28.5 h, 10 µM; inhibitor

Compound	% of control remaining [%]
COC(=O)/C=C/c1cn(C2CC(O)C(CO)O2)c(=O)[nH]c1=O (stereo not drawn) [CBK201244]	193.572
COc1ccc(C(=O)Nc2nc(-c3ccc4c(c3)OCCO4)cs2)cc1OC [CBK287588]	133.884
Cc1ccccc1C(=O)Nc1cc(NC(=O)c2ccccc2C)cc(C(=O)O)c1 [CBK262007]	100
O=C(CN1C(=O)c2ccccc2C1=O)Nc1cccc2cccnc12 [CBK261320]	115.159
Cc1cccc(C(=O)NCCc2nc3ccccc3[nH]2)c1 [CBK263493]	114.423
C[C@@H]1CN(C(=O)OCc2nccn2C)C[C@H](C)O1 [CBK200142]	92.4247
CCOC(=O)C(C(C)=O)(N1CCOCC1)N1CCOCC1 [CBK261173]	119.493
O=C(CCN1C(=O)c2ccc(Br)cc2C1=O)N1CCN(Cc2ccccc2)CC1 [CBK269238]	129.629
CN(Cc1cccnc1)C(=O)Cc1ccc(-n2cccn2)cc1 [CBK297726]	164.58
CCn1c(CN2CCCC2c2noc(C)n2)nc2cc(F)ccc21 (stereo not drawn) [CBK305250]	89.6577
CN(CCCn1c(=S)[nH]c2ccccc2c1=O)C1CCCCC1 [CBK296642]	113.654
CS(=O)(=O)c1ccc(-c2cnc(N)c(NCC3CCOCC3)n2)cc1 [CBK063849]	120.508
CCN(CC(=O)NC(C)(C)C)S(=O)(=O)c1cccc(C#N)c1 [CBK306087]	127.086
CN(CCC1CCOCC1)c1nc2c(c(=O)[nH]1)Cc1ccccc1OC2 [CBK306622]	94.275
O=C(Cn1cc(C(=O)NC2CCCC2)ccc1=O)NCC1(c2ccccc2)CCCC1 [CBK286248]	112.184
Nc1ncc(-c2ccc(C(=O)N3CCOCC3)cc2)nc1C(=O)Nc1ccccc1 [CBK149153]	101.338
Cc1ccc(S(=O)(=O)NCCSc2nc(-c3ccc([N+](=O)[O-])cc3)c[nH]2)cc1 [CBK268518]	80.1046
COc1cc(-c2nnc(SCC(=O)O)n2-c2ccccc2)cc(OC)c1OC [CBK131695]	112.365
Cc1nn(C)cc1S(=O)(=O)NCC1(c2ccccc2)CCCC1 [CBK282766]	127.074
O=C1COC[C@H]([C@H](O)c2ccc(NC(=O)c3cnccn3)cc2)N1 [CBK289673]	114.574
N#Cc1ccc(-c2nc3cc(Cl)c(F)cc3[nH]2)cc1 [CBK096290]	142.68
Cc1cccc(OCC(=O)N2CCN(S(=O)(=O)c3ccc([N+](=O)[O-])cc3)CC2)c1 [CBK264221]	127.155
COc1cccc2cc(C(=O)NCc3cccc4ccccc34)oc12 [CBK149800]	91.3965
COCCn1c(CO)nnc1[C@H]1C[C@@H](NC(=O)c2cc(O)ccc2F)C1 [CBK307698]	65.1189
CC(C)(C)c1ccc(NC(=O)C(=O)NCCCn2ccnc2)cc1 [CBK267358]	137.69
Cc1onc(-c2ccccc2)c1C(=O)n1cccn1 [CBK287274]	123.671

Compound	% of control remaining [%]
CN(C)CCCC(=O)Nc1ccc2ncccc2c1 [CBK159824]	104.025
CONc1nc(NC(C)(C)C)nc(OCC#N)n1 [CBK263655]	136.142
O=C(Nc1ccccc1)Nc1ccccc1C(=O)NCc1ccccc1 [CBK265338]	127.692
Cc1cc(NC(=O)c2cc(Cl)sc2Cl)no1 [CBK010872]	141.198
CC1CN(C(=S)Nc2ccc3ccccc3c2)CC(C)O1 (stereo not drawn) [CBK004993]	105.07
COCC1=C(C(=O)OC)[C@H](c2ccc(F)c(F)c2)N(C(=O)NCCCN2CCC(c3cccc(NC(C)=O)c3)CC2)C(=O)N1 [CBK051451C]	134.541
CN(C)c1cc(=O)c2cc3c(cc2o1)CCC3 [CBK010017]	149.378
O=C1N(CN2CCN(C(c3ccccc3)c3ccccc3)CC2)c2ccccc2C12OCCO2 [CBK265537]	129.315
COCCN(Cc1cc2ccc(C)cc2nc1O)C(=O)c1cccs1 [CBK269324]	99.6175
N#CCCn1cc(C(=O)N2CCCCC2)c(-c2cccs2)n1 [CBK306194]	186.019
CCN1CCN(Cc2ccccc2[N+](=O)[O-])CC1 [CBK261561]	95.9413
O=C(NC1CCCC1)C1CCCN1c1nc(O)cc(C(F)(F)F)n1 (stereo not drawn) [CBK003927]	118.9
O=C(CN1CCCC2(CCN(C(=O)Cc3c[nH]c4ccccc34)C2)C1)Nc1ncccn1 (stereo not drawn) [CBK132048]	109.163
COc1ccc(Cl)cc1NC(=O)CCSc1ccccc1 [CBK263969]	120.705
Clc1ccc(COc2cncc(OC3CCN(CC4CC4)C3)n2)cc1Cl (stereo not drawn) [CBK084443]	118.715
O=C(NCCOc1ccccc1)N1CCN(Cc2ccccc2)CC1 [CBK155652]	124.242
O=C(c1cccnc1)C1CCN(C(=O)Cc2ccc(Cl)cc2)CC1 [CBK283813]	120.184
CCC#CC(=O)Nc1cncc(OC2CCNCC2)n1 [CBK026731T]	103.391
O/N=C/c1ccc(-c2cc(Cl)ccc2Cl)o1 [CBK288500]	122.726
O=C(O)c1ccc(C(=O)O)c2c(C(=O)O)cccc12 [CBK261356]	100
O=[N+]([O-])c1ccc(CN2CCC(Oc3cncc(OCc4cccnc4)n3)C2)cc1 (stereo not drawn) [CBK084456]	102.06
CCOC1(c2ccccc2)N=C2C(Cl)=CC(C(F)(F)F)=CN2N=C1c1ccccc1 (stereo not drawn) [CBK020634]	113.87
Cc1ccc(C(=O)N2CCC3(CC2)CNC(=O)c2ccccc2O3)o1 [CBK285328]	131.433
C[S+]([O-])c1ccc(-c2cnc(NCC3CCN(C(=O)OC(C)(C)C)CC3)cn2)cc1 (stereo not drawn) [CBK173723]	169.086
Cn1ccc(CN2CCOC(c3nccs3)C2)cc1=O (stereo not drawn) [CBK304921]	120.284

An excerpt from the list above, as a working copy:
Compound	% of control remaining [%]
CONc1nc(NC(C)(C)C)nc(OCC#N)n1 [CBK263655]	136.142
O=C(Nc1ccccc1)Nc1ccccc1C(=O)NCc1ccccc1 [CBK265338]	127.692
Cc1cc(NC(=O)c2cc(Cl)sc2Cl)no1 [CBK010872]	141.198
CC1CN(C(=S)Nc2ccc3ccccc3c2)CC(C)O1 (stereo not drawn) [CBK004993]	105.07
